Measurements published in article PMC11143359 (2024).
No constants are given. Whether binding was seen depends on the method and setting. In cells and extracts the contact can be indirect. Some binding calls cover weakened binding; strength is not graded here. Tags and fused reporters may be left off the sequences shown.

By UniProt entry, the sequences of proteins in these tests, tags left out. Residues count along the entry.
UniProt Q61790, residues 24-521: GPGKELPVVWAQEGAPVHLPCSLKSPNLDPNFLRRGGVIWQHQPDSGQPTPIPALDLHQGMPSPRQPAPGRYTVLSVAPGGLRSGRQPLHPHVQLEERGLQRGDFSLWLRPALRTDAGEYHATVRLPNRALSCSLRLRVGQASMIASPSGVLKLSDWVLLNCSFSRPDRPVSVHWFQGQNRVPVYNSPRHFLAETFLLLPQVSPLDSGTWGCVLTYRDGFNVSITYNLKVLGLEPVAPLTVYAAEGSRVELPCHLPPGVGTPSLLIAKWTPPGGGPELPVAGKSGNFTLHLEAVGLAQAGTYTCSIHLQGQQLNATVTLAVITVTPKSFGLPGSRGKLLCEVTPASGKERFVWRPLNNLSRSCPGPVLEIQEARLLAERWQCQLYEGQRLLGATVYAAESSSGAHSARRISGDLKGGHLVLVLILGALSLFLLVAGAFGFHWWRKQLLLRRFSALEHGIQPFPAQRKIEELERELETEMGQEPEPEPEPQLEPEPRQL

Biological target: T1, FLAG-Aplp1, full-length (FL), in HEK293FT cells (UniProt Q03157)
T1 sequence: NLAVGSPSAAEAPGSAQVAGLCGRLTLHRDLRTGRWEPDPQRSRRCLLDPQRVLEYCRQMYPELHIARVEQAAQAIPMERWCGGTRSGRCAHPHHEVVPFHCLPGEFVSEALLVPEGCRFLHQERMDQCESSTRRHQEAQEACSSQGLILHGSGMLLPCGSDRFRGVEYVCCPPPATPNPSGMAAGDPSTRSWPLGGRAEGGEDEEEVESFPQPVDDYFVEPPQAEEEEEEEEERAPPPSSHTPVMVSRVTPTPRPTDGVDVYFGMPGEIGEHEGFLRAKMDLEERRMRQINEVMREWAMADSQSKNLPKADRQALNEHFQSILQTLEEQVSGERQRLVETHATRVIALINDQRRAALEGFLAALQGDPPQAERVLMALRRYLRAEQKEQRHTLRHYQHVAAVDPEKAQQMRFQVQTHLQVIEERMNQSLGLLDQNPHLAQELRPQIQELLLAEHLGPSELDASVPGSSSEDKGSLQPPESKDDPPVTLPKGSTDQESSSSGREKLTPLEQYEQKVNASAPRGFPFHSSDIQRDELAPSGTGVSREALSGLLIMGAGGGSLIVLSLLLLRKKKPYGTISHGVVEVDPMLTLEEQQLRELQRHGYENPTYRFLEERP
Test: co-IP; HEK293FT cells transfected with FLAG-Aplp1 (or human FLAG-APLP1) and Lag3-Myc, full length or mutants; 50 mM Tris pH 8.0, 150 mM NaCl, 1% Triton X-100; anti-Myc on Protein G Dynabeads or FLAG M2 magnetic beads; in some panels 410C9, mIgG or α-syn PFF added

binding: binds
Substance: Lag3-Myc, full-length (FL), in HEK293FT cells (from UniProt Q61790 24-521) (receptor)
